This is an account of results in patent US20060247419A1, “Translocation dependent complementation for drug screening” (BioImage A/S, priority 2002, published 2006).

This experiment addresses CZ-CtermEYFP158 (Aequorea victoria). Nature of the experiment: split-EYFP fluorescence complementation, co-transfected CHO-hIR cells, microscopy.

Results are given in words; binding and its absence hold for the method and conditions named. Some binding calls cover weakened binding; strength is not graded here.

B1: NtermEYFP157-NZ (protein)
chain: MVSKGEELFTGVVPILVELDGDVNGHKFSVSGEGEGDATYGKLTLKFICTTGKLPVPWPTLVTTFGYGLQCFARYPDHMKQHDFFKSAMPEGYVQERTIFFKDDGNYKTRAEVKFEGDTLVNRIELKGIDFKEDGNILGHKLEYNYNSHNVYIMADKGGTGSGALKKELQANKKELAQLKWELQALKKELAQ
For the molecule B1, the binding result is recorded as “binds”.
